The exact form of at least one protein or probe is not confirmed. At least one verdict rests on a figure or table, not on a statement of the authors.
System: cGAS
Assay: EMSA
Settings: higher affinity than MAB21L1; EMSA: 20 mM Tris pH 8.0, 200 mM NaCl, 30 min on ice, 1% agarose gel, Gel-Red stain; recombinant protein; label: none (Gel-Red stain)

Sequence: GGATACGTAACAACGCTTATGCATCGCCCCGCTACATCCCTGAGCTGAC (double strand) [50mer dsDNA]
- binding result: binds

From PMC4897736, “Structural and biochemical characterization of the cell fate determining nucleotidyltransferase fold protein MAB21L1” (Scientific Reports, 2016)
